{"source": "PubChem BioAssay AID1347423", "about": "(Functional Genomics Laboratory (NCATS/FGL), 2020)", "note": "The whole screen tested about 52,000 sequences, of which about 210 (0.4%) were called active.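 Rule for the calls: active = gene whose silencing raises cell survival under the drug, median off-target-corrected z-score across its silencing RNAs 2 or more; inactive = the rest.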 This is one part of the list.", "data": [{"assay": "Resistance to Poly (ADP-Ribose) Polymerase inhibitor: Gene Identification via Genome-wide siRNA Screen", "details": "mouse BRCA2 R2336H ES cells, olaparib, CellTiter-Glo viability; active compounds read high", "outline": "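Genome-wide siRNA screen (3 siRNAs/gene, 20 nM) in mouse ES cells carrying hypomorphic BRCA2 R2336H; olaparib 500 nM added 48 h post-transfection, CellTiter-Glo viability 72 h later. Normalized to plate-median negative control; MAD z-scores, gene median, seed-adjusted.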", "values": [{"sequence": "CCUGCGUUGACCAAUCAGATT against Tmem24", "z-score": "inactive: 0.0609"}, {"sequence": "GCUGAAGUCUCUUCAAUGCTT against Trappc6b", "z-score": "inactive: 0.428"}, {"sequence": "GGAACAACAUGUUCAAGAUTT against 9530014D17Rik", "z-score": "inactive: 0.0648"}, {"sequence": "GGGCCAAGGAAGAACUUCATT against Micl", "z-score": "inactive: 1.38"}, {"sequence": "GACUUCAGACAAAUAGUGCTT against 2310069N01Rik", "z-score": "inactive: -0.966"}, {"sequence": "GGGUGUGUUGGAUACCUAUTT against BC054059", "z-score": "inactive: 0.852"}, {"sequence": "GGAAAAACUUGACUUACAATT against Mist1", "z-score": "inactive: 0.485"}, {"sequence": "CGGAUGUGGGCAUUCGUUATT against Fbxl7", "z-score": "inactive: -0.0332"}, {"sequence": "GGCUUAGUCAGUUCUCUCGTT against Sdf2", "z-score": "inactive: 1.18"}, {"sequence": "CGGCCUCCAUGUUAAGAUATT against Csf2rb2", "z-score": "inactive: 0.645"}, {"sequence": "GCUCACUGCUACAAAUACCTT against Prss2", "z-score": "inactive: 0.0149"}, {"sequence": "GGAAACAUUUGUCUUUUGCTT against Eif2b5", "z-score": "inactive: -0.841"}, {"sequence": "CCUCACCGUAGUGAUGUUGTT against Olfr257", "z-score": "inactive: -2.92"}, {"sequence": "CCCAGGUAGUAUACAAGGUTT against 2010005A06Rik", "z-score": "inactive: 2.12"}, {"sequence": "GGAACUAUUUUUUACCCAATT against Dclre1a", "z-score": "inactive: 1.78"}, {"sequence": "GGGUACAAGUGCUGAAAAATT against Tcfcp2l2", "z-score": "inactive: -0.913"}, {"sequence": "GGCAUUCUCAAGAAAAAGUTT against 1200013B22Rik", "z-score": "inactive: -1.25"}, {"sequence": "GCCGUGCAACACUUCUACATT against Esrrb", "z-score": "inactive: 1.71"}, {"sequence": "GCGAGUUUAAAAGCACACUTT against 2310079F23Rik", "z-score": "inactive: 1.26"}, {"sequence": "GGAAGAGGACCAAAGUGCUTT against BC027342", "z-score": "inactive: 0.0991"}, {"sequence": "GGGAAAUCAGUUUUACAAATT against Chl1", "z-score": "active: 2.76"}, {"sequence": "GGUCUUACAUCUGGUUUCCTT against Rapgef5", "z-score": "inactive: 1.04"}, {"sequence": "GGGUUCACGAAAGAGUAAATT against Clcn5", "z-score": "inactive: -1.45"}, {"sequence": "GCUAAGUGCUCGAAUCCGATT against 1810031K17Rik", "z-score": "inactive: -0.121"}, {"sequence": "CCACAGUCGCUUUCUUUUATT against A830093I24Rik", "z-score": "inactive: 0.39"}, {"sequence": "GACCAGUGACAAGACCAUCTT against Cmya4", "z-score": "inactive: 1.74"}, {"sequence": "GGUUAUUCAUAUGGAACUGTT against Mapk9", "z-score": "inactive: 0.32"}, {"sequence": "GGGCUGCUUUAAUAAAGAUTT against Pycr2", "z-score": "inactive: -0.367"}]}]}
